According to paper doi:10.1101/2020.02.20.955922:
No constants are given. Whether binding was seen depends on the method and setting. In cells and extracts the contact can be indirect. Some entries that bind do so weakly or less than the wild type. Sequences can lack the tags named with a protein.

T1: GFP-TSN2 (Arabidopsis thaliana) (UniProt Q9FLT0)
T1 sequence: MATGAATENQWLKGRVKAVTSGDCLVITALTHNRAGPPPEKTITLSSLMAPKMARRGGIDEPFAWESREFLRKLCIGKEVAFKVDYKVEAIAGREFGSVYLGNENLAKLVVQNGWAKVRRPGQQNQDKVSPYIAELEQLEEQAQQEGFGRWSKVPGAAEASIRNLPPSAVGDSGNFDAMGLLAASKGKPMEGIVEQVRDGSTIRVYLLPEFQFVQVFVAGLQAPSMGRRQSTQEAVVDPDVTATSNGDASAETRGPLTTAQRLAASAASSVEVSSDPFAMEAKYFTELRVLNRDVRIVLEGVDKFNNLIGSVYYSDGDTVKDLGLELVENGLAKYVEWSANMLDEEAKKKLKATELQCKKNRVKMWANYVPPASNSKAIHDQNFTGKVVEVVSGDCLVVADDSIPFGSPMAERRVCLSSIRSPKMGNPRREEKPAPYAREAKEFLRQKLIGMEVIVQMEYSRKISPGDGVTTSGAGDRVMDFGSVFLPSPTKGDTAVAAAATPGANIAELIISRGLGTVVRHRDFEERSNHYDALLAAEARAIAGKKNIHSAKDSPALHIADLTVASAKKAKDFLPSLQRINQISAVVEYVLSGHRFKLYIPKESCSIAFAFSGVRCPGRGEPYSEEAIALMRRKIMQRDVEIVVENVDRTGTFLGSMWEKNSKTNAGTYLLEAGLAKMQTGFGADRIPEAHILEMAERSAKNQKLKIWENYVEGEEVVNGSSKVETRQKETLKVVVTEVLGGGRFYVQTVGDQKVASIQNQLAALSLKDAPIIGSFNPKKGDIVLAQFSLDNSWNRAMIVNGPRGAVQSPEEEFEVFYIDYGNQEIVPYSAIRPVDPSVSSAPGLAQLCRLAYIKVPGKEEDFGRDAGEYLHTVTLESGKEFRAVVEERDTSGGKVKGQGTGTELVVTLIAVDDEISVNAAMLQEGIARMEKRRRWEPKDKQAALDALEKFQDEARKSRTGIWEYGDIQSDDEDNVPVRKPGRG

T2: GFP-TSN1 (Arabidopsis thaliana) (UniProt Q8VZG7)
T2 sequence: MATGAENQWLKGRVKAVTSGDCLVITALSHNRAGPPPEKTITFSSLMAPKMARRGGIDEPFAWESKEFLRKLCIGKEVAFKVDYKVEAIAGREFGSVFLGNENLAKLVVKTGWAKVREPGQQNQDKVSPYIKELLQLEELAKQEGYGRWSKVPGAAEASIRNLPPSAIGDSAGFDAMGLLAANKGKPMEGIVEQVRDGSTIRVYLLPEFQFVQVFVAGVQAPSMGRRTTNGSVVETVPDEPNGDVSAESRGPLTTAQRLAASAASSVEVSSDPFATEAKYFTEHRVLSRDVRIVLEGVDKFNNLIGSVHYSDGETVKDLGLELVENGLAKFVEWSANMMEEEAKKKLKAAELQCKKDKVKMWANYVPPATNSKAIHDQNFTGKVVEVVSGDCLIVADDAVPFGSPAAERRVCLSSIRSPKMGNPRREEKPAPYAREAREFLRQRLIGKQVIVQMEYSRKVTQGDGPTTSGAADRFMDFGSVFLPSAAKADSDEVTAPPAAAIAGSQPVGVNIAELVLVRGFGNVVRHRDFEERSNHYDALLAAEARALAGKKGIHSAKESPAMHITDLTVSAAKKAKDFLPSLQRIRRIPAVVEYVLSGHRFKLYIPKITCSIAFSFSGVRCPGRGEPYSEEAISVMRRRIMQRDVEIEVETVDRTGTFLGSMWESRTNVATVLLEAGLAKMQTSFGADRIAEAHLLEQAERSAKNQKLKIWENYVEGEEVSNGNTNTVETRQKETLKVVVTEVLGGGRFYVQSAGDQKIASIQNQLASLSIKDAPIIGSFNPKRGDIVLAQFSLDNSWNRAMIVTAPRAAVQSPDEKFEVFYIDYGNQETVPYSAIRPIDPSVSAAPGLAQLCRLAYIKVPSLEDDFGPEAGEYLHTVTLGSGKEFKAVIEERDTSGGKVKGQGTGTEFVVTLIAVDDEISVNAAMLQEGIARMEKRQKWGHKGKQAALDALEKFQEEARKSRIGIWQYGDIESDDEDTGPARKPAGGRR

T3: SnRK1.2 fused to YFP or CFP (FRET construct) (Arabidopsis thaliana) (UniProt P92958)
T3 sequence: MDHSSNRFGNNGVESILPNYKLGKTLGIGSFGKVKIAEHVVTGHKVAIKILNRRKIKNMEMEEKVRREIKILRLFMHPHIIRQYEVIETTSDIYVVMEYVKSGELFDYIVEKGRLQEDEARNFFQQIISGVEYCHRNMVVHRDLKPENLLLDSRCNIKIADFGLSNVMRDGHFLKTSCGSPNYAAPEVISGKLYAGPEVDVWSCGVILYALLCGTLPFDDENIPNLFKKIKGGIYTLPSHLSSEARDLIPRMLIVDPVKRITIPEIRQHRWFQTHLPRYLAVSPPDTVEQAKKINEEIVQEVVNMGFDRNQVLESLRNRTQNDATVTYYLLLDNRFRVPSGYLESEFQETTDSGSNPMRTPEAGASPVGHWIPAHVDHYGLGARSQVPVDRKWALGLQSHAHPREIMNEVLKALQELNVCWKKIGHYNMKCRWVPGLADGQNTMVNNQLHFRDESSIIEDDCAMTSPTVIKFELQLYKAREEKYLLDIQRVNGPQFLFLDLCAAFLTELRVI

B1: Myc-RH12 (protein, UniProt Q9M2E0 1-498)
chain: MNTNRGRYPPGVGTGRGAPPNPDYHQSYRQQQPPQDQQYVQRGYSQNPQQMQLQQQHQQQQQQQQWSRRPQLPGNASNANEVVQQTTQPEASSDANGQDWKATLRLPPPDTRYQTADVTATKGNEFEDYFLKRDLLKGIYEKGFEKPSPIQEESIPIALTGSDILARAKNGTGKTGAFCIPVLEKIDPNNNVIQAMILVPTRELALQTSQVCKELSKYLNIQVMVTTGGTSLRDDIMRLHQPVHLLVGTPGRILDLTKKGVCVLKDCAMLVMDEADKLLSAEFQPSLEELIQFLPQNRQFLMFSATFPVTVKAFKDRHLRKPYVINLMDQLTLMGVTQYYAFVEERQKVHCLNTLFSKLQINQSIIFCNSVNRVELLAKKITELGYSCFYIHAKMVQDHRNRVFHEFRNGACRNLVCTDLFTRGIDIQAVNVVINFDFPRTSESYLHRVGRSGRFGHLGLAVNLVTYEDRFKMYQTEQELGTEIKPIPSNIDQAIYCQ
B2: TSN2 fused to YFP or CFP (FRET construct) (protein, UniProt Q9FLT0 1-985)
chain: MATGAATENQWLKGRVKAVTSGDCLVITALTHNRAGPPPEKTITLSSLMAPKMARRGGIDEPFAWESREFLRKLCIGKEVAFKVDYKVEAIAGREFGSVYLGNENLAKLVVQNGWAKVRRPGQQNQDKVSPYIAELEQLEEQAQQEGFGRWSKVPGAAEASIRNLPPSAVGDSGNFDAMGLLAASKGKPMEGIVEQVRDGSTIRVYLLPEFQFVQVFVAGLQAPSMGRRQSTQEAVVDPDVTATSNGDASAETRGPLTTAQRLAASAASSVEVSSDPFAMEAKYFTELRVLNRDVRIVLEGVDKFNNLIGSVYYSDGDTVKDLGLELVENGLAKYVEWSANMLDEEAKKKLKATELQCKKNRVKMWANYVPPASNSKAIHDQNFTGKVVEVVSGDCLVVADDSIPFGSPMAERRVCLSSIRSPKMGNPRREEKPAPYAREAKEFLRQKLIGMEVIVQMEYSRKISPGDGVTTSGAGDRVMDFGSVFLPSPTKGDTAVAAAATPGANIAELIISRGLGTVVRHRDFEERSNHYDALLAAEARAIAGKKNIHSAKDSPALHIADLTVASAKKAKDFLPSLQRINQISAVVEYVLSGHRFKLYIPKESCSIAFAFSGVRCPGRGEPYSEEAIALMRRKIMQRDVEIVVENVDRTGTFLGSMWEKNSKTNAGTYLLEAGLAKMQTGFGADRIPEAHILEMAERSAKNQKLKIWENYVEGEEVVNGSSKVETRQKETLKVVVTEVLGGGRFYVQTVGDQKVASIQNQLAALSLKDAPIIGSFNPKKGDIVLAQFSLDNSWNRAMIVNGPRGAVQSPEEEFEVFYIDYGNQEIVPYSAIRPVDPSVSSAPGLAQLCRLAYIKVPGKEEDFGRDAGEYLHTVTLESGKEFRAVVEERDTSGGKVKGQGTGTELVVTLIAVDDEISVNAAMLQEGIARMEKRRRWEPKDKQAALDALEKFQDEARKSRTGIWEYGDIQSDDEDNVPVRKPGRG

What was measured:
[1] = target: T1, GFP-TSN2 (Arabidopsis thaliana); experiment: co-IP
[2] = target: T2, GFP-TSN1 (Arabidopsis thaliana); experiment: co-IP
[3] = target: T3, SnRK1.2 fused to YFP or CFP (FRET construct) (Arabidopsis thaliana); experiment: FRET or BRET

Binder	binding [1]	binding [2]	binding [3]
B1	binds	binds	
B2			binds
